The text below walks through data of publication PMC2031890.

Amino acid sequences for entries named in this document (tags omitted).
UniProt Q9NB71: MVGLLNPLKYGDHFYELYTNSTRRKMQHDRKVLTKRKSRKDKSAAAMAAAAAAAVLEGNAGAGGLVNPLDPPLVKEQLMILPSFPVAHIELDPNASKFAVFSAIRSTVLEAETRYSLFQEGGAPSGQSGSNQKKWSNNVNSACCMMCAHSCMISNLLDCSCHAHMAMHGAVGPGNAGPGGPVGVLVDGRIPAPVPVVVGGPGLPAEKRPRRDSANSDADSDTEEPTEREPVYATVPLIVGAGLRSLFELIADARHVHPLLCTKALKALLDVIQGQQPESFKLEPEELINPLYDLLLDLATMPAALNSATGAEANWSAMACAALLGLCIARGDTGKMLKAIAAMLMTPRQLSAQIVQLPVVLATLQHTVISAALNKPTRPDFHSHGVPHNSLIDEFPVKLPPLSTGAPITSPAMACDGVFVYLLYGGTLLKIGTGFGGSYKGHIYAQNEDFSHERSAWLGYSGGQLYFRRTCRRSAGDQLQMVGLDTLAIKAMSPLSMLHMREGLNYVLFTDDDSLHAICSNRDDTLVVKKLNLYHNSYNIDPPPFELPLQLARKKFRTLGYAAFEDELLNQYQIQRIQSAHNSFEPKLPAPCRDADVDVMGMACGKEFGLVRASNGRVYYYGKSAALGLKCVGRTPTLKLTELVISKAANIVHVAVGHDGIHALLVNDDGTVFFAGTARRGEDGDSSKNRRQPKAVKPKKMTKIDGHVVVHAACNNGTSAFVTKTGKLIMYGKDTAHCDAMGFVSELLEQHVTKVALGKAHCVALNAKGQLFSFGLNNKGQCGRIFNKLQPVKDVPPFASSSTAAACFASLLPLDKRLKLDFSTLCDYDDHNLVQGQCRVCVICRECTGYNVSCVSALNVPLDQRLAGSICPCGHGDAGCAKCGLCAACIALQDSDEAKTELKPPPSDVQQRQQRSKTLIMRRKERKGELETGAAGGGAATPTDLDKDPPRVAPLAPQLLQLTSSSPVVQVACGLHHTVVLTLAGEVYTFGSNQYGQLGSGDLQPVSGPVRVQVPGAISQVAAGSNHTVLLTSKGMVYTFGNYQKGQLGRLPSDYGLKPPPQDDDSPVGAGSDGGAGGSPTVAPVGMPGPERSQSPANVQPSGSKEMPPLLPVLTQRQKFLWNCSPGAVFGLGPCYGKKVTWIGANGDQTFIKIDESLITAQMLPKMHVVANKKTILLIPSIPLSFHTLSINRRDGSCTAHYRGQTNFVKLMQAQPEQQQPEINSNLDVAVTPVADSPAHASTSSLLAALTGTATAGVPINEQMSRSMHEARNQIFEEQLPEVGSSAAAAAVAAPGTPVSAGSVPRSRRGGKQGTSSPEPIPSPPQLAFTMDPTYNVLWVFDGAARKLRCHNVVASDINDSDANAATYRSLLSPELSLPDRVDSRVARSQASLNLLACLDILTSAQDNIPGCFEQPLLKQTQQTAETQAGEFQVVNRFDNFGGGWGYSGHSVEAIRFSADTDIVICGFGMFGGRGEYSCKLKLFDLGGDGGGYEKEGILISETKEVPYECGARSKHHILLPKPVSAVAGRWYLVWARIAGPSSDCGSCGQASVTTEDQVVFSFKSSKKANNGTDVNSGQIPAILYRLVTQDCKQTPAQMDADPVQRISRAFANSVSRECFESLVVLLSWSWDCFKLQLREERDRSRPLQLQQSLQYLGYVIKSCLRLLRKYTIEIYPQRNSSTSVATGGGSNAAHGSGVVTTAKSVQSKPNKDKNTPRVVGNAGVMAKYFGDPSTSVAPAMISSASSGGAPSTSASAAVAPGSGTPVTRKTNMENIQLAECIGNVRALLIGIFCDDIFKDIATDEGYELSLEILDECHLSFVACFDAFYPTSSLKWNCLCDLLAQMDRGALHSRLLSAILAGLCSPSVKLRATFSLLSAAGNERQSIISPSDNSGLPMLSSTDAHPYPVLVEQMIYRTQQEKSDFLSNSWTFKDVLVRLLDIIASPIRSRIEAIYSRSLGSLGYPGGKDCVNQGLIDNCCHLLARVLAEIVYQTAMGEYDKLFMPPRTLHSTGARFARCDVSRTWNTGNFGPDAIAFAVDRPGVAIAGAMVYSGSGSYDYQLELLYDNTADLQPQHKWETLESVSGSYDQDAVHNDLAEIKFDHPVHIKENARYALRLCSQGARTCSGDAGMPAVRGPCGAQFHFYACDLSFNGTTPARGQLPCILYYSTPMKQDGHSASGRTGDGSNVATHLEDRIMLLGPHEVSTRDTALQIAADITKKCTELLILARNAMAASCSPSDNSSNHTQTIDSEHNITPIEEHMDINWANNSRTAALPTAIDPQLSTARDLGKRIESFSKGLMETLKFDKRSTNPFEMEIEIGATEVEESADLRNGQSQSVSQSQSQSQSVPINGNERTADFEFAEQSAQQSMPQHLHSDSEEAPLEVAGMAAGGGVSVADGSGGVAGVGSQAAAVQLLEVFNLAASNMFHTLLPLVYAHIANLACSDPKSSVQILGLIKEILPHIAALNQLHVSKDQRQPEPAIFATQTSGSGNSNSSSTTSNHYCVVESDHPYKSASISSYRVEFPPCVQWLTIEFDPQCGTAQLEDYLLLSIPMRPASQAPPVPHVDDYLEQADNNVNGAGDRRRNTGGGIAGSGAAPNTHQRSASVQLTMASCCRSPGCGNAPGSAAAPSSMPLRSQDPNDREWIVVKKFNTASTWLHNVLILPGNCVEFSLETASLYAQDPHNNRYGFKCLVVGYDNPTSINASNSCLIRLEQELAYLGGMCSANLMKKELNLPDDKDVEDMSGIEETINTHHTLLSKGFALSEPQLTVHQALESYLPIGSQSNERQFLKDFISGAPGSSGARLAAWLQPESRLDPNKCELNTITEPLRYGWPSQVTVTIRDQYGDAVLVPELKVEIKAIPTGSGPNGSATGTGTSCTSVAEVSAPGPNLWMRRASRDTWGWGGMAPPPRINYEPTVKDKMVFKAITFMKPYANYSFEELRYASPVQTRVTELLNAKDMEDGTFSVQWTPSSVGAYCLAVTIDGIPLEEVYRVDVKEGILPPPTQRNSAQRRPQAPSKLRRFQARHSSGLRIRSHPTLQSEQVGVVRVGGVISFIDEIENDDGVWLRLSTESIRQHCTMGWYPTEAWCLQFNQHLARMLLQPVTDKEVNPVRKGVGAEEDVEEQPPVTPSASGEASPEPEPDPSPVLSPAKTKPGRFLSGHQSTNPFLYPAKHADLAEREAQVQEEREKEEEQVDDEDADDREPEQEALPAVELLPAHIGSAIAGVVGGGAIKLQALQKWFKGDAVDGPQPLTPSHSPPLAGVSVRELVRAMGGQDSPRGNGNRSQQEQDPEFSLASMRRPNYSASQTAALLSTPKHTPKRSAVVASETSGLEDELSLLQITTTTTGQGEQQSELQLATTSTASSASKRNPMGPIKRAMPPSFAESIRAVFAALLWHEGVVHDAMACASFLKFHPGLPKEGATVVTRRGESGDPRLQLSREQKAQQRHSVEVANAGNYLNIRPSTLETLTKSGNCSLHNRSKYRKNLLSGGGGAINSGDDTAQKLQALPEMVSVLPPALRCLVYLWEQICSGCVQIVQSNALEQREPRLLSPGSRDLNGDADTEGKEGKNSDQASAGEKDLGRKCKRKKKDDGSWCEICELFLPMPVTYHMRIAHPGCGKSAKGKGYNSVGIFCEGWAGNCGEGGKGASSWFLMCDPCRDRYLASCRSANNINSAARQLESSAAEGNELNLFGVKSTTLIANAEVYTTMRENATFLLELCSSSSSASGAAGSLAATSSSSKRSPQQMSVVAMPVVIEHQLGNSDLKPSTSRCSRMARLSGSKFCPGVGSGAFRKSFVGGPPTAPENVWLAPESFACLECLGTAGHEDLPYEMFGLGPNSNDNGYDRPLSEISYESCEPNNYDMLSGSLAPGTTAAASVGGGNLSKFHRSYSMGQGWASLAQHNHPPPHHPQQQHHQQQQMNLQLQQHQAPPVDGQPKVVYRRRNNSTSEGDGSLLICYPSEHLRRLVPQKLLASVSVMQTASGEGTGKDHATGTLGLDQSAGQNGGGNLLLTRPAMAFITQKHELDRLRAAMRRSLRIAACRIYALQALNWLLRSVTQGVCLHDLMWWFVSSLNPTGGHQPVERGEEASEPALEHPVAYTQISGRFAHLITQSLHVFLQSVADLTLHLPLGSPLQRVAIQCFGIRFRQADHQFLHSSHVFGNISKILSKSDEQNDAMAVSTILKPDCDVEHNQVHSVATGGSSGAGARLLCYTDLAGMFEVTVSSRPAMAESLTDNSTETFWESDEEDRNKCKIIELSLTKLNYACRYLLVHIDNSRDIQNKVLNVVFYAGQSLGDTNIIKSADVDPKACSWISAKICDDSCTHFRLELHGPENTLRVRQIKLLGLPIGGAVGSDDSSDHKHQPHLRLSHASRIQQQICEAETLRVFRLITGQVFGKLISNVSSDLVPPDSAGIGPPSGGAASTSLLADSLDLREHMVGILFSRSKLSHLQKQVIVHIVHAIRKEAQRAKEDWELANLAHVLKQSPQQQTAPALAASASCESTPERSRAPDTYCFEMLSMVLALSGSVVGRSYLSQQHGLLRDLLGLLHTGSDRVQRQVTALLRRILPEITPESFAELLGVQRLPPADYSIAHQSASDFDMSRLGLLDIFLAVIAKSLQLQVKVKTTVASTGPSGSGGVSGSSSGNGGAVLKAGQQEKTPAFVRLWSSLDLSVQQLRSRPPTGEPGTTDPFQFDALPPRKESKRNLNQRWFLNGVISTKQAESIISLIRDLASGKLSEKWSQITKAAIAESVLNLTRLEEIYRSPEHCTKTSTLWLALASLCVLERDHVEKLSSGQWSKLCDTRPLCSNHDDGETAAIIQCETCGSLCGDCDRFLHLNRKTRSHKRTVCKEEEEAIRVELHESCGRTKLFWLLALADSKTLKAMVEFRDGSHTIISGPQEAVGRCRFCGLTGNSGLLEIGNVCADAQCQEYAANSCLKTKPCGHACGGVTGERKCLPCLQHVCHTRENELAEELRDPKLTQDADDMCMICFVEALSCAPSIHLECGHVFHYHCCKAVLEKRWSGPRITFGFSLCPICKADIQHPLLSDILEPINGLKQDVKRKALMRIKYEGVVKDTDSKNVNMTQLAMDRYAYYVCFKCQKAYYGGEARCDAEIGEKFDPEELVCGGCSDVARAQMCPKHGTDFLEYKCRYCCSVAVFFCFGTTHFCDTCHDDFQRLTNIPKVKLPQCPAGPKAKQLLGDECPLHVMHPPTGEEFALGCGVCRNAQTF

These are yes or no findings as the source states them, for the method shown. In cells and extracts the contact can be indirect. Some results given as binding are weak or reduced against the parent protein; the word gives no strength. Sequences can lack the tags named with a protein.

Test [1] has as its target T1, His-Myc-tagged DFsn (Drosophila) (UniProt Q9V6L9).
T1 sequence: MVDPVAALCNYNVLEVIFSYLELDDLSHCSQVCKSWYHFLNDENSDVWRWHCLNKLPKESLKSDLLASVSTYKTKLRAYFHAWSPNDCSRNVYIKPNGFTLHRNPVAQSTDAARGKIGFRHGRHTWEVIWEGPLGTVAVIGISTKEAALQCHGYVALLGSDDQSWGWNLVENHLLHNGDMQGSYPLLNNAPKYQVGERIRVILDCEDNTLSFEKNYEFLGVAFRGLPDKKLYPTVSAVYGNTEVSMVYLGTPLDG
In words: co-IP; third instar larval brain lysate of flies neuronally expressing His-Myc-DFsn; IP with anti-Highwire (HIW2b) or anti-Myc (9E10), protein A beads; lysis buffer Tris-HCl 50 mM pH 7.4, NaCl 150 mM, NP-40 0.2%, NaDOC 0.2%; western blot. A general note: Immunoblotting shows a protein as a band on a membrane.

The target in test [2] is Highwire, endogenous (Drosophila (endogenous in larval brains)) (UniProt Q9NB71). The test is described as above.

For “Highwire, endogenous (from UniProt Q9NB71 1-5233) (enzyme)”, the binding entry in test [1] is “binds”.

B1: His-Myc-tagged DFsn (protein, UniProt Q9V6L9 1-255)
chain: MVDPVAALCNYNVLEVIFSYLELDDLSHCSQVCKSWYHFLNDENSDVWRWHCLNKLPKESLKSDLLASVSTYKTKLRAYFHAWSPNDCSRNVYIKPNGFTLHRNPVAQSTDAARGKIGFRHGRHTWEVIWEGPLGTVAVIGISTKEAALQCHGYVALLGSDDQSWGWNLVENHLLHNGDMQGSYPLLNNAPKYQVGERIRVILDCEDNTLSFEKNYEFLGVAFRGLPDKKLYPTVSAVYGNTEVSMVYLGTPLDG
As for B1, in test [2], the binding result was “binds”.
